# Test results as given in the supplement of paper PMC12819154, “High-throughput peptide-centric local stability assay extends protein–ligand identification to membrane proteins, tissues and bacteria” (Nature Structural & Molecular Biology, 2025).
# Sequences of proteins named here, by UniProt entry; tags and fusion partners are left off. A change or cut given only in a name is not applied to a line headed by its entry.
# UniProt Q9BZC1: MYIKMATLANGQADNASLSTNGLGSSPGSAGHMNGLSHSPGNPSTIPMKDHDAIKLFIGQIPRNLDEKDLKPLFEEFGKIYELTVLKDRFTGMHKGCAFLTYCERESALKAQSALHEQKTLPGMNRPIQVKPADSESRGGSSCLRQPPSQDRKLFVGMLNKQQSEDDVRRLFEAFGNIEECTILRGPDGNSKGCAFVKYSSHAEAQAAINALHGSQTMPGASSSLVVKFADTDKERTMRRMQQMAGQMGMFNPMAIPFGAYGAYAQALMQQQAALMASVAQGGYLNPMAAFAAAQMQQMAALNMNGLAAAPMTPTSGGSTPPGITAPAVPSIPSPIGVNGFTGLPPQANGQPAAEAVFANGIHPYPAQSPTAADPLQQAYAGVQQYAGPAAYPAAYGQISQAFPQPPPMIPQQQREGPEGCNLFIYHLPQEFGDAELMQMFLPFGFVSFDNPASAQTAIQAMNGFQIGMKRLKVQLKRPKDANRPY
# UniProt Q9BZ95: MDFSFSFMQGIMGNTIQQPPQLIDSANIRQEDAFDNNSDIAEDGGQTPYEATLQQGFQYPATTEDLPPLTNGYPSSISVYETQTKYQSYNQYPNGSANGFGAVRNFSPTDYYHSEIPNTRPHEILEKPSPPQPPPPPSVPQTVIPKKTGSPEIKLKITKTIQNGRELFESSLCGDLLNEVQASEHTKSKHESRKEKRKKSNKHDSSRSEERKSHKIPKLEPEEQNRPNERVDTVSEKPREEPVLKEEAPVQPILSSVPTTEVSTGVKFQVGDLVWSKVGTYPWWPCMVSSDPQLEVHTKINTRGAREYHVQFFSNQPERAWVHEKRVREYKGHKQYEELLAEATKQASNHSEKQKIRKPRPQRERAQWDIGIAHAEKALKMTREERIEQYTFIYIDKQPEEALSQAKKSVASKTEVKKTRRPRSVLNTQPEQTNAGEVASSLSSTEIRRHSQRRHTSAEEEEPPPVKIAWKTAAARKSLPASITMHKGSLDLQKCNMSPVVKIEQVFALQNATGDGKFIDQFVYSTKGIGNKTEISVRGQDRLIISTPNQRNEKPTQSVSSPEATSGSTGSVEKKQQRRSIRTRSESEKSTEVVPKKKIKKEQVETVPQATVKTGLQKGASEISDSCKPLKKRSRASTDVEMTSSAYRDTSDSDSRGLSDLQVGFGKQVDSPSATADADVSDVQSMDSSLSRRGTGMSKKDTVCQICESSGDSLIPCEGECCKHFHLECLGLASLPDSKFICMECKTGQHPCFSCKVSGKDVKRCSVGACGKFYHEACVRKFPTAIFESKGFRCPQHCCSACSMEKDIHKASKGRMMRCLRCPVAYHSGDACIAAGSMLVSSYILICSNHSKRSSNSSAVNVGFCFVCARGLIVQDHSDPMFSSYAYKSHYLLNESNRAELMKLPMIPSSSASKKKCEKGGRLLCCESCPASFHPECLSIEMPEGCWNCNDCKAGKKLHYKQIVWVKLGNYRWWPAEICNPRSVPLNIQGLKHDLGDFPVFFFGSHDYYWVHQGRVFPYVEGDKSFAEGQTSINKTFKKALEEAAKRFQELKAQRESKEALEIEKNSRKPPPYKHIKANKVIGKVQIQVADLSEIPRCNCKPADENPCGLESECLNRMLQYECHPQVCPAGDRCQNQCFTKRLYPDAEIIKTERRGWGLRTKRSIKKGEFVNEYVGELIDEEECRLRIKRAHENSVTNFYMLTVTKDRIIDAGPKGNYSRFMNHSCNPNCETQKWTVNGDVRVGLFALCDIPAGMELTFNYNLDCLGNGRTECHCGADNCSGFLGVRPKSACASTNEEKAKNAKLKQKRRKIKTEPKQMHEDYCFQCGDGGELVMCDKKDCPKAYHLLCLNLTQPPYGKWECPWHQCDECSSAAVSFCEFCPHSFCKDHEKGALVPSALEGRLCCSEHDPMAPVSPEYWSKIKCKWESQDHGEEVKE
# UniProt Q9BUX1: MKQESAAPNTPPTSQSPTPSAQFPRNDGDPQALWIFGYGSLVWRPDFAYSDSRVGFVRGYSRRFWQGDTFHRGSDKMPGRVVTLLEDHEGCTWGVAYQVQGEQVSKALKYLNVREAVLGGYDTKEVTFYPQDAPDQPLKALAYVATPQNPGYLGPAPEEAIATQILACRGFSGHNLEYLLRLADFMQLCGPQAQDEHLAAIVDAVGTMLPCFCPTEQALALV
# UniProt Q9GZT9: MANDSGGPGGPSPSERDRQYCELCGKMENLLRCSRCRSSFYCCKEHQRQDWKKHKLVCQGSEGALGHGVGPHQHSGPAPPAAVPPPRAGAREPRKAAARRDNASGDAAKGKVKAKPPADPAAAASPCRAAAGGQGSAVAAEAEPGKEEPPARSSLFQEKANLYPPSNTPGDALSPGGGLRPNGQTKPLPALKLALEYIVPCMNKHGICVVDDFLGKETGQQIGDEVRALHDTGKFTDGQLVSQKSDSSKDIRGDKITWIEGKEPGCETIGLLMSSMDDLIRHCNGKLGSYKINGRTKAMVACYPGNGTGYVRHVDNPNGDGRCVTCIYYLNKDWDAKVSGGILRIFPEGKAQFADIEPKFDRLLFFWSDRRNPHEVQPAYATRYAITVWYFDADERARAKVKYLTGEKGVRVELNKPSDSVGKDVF
# UniProt Q9H0M5: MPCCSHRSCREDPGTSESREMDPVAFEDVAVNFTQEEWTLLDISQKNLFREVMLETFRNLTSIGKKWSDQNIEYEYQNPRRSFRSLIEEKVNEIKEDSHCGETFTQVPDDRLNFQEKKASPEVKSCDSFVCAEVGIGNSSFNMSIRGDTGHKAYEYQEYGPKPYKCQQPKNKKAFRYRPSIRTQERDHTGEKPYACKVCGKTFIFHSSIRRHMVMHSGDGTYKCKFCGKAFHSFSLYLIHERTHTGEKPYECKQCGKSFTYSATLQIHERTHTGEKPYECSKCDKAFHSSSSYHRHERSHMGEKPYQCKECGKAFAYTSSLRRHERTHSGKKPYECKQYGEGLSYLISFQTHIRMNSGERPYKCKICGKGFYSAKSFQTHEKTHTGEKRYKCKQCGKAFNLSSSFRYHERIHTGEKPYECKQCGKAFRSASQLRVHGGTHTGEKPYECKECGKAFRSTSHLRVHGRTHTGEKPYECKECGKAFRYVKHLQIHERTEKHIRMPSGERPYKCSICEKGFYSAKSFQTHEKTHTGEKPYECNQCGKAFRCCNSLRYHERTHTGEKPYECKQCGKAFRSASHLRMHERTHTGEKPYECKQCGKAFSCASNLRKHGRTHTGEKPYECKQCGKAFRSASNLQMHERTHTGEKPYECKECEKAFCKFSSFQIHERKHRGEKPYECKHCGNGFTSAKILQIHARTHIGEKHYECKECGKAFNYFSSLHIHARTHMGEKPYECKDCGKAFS
# UniProt Q9C0D2: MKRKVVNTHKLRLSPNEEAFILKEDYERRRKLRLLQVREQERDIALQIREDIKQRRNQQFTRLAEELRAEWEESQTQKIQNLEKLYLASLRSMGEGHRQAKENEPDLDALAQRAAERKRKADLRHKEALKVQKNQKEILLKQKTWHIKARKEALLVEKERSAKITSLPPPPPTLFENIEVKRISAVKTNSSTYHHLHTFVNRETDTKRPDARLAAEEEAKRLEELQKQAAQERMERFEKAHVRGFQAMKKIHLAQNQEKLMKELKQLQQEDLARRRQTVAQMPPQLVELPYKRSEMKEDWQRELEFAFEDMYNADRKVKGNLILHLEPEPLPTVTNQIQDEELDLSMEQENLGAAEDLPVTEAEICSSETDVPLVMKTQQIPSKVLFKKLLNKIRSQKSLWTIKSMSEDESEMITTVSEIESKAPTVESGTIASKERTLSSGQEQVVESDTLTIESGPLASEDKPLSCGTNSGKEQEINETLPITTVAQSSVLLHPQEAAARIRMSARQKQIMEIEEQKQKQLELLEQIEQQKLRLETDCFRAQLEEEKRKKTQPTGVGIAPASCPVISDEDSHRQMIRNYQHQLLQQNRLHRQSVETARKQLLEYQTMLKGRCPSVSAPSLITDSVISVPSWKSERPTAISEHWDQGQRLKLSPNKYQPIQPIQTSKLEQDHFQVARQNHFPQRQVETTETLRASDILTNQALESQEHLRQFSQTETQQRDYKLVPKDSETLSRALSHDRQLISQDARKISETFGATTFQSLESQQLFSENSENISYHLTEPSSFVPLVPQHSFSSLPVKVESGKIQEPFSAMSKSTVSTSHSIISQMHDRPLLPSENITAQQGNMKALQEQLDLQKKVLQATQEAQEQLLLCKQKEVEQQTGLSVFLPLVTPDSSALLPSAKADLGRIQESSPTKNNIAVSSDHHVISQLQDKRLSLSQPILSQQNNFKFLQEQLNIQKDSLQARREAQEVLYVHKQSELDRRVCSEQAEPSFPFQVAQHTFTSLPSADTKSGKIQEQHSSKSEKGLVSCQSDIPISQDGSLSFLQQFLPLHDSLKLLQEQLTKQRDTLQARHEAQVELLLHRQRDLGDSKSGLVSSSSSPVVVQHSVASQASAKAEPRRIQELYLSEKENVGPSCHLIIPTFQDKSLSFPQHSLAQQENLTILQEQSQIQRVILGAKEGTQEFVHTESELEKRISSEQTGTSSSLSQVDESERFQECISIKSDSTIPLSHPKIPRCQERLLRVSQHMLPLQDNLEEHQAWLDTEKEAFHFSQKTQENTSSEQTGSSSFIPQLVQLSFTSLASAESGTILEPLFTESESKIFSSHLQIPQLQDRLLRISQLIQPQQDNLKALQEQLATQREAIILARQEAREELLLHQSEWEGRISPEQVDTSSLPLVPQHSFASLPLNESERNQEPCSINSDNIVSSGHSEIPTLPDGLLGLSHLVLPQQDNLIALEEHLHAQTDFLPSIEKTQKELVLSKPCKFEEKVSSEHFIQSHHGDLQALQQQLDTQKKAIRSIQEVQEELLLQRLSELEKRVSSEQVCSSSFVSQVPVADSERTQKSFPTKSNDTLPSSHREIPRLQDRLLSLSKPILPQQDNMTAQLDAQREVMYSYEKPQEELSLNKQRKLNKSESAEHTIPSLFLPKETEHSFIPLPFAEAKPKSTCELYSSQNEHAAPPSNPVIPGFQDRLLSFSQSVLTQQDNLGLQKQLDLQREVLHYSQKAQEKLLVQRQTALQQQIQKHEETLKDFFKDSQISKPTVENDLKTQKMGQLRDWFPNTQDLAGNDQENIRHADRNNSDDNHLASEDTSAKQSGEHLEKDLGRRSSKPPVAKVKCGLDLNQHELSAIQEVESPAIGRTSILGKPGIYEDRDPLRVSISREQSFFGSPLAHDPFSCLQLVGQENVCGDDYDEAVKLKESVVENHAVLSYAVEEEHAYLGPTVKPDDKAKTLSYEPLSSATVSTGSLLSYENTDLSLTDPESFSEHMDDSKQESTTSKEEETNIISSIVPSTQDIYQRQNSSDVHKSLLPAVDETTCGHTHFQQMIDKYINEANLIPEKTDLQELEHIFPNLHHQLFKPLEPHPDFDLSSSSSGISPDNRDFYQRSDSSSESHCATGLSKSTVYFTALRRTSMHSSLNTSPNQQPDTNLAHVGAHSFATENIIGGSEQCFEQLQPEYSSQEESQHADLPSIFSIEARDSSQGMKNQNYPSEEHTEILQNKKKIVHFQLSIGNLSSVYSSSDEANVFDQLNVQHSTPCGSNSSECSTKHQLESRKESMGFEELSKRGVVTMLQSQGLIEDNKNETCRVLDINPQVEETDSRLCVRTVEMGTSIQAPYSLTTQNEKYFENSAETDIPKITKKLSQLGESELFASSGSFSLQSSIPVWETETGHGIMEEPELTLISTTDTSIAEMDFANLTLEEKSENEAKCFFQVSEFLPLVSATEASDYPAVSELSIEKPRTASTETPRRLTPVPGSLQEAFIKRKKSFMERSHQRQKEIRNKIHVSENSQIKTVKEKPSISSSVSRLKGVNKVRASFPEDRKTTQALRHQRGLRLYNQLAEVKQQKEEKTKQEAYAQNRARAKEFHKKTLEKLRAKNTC
# UniProt Q9BVS4: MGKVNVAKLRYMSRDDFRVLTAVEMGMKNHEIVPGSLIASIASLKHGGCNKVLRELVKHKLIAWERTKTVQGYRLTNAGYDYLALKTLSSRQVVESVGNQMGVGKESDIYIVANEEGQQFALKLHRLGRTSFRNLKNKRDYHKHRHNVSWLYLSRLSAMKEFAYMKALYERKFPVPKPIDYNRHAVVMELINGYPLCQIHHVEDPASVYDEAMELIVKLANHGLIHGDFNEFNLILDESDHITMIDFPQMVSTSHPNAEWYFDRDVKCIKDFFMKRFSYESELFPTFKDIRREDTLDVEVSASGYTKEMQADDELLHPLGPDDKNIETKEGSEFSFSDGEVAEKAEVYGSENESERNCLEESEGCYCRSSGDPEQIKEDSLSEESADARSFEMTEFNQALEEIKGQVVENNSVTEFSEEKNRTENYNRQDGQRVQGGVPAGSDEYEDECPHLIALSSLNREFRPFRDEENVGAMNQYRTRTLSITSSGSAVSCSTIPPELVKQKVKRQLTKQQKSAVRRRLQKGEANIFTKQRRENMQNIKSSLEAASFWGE
# The other results are listed elsewhere or left out. Most values lie at the level of the controls, where differences are scatter.
# Compound: Cc1nc(Nc2ncc(C(=O)Nc3c(C)cccc3Cl)s2)cc(N2CCN(CCO)CC2)n1 [dasatinib]
# Experiment: log2 fold change of tryptic peptide abundance, ligand vs vehicle (limited proteolysis) (log2 ratio); higher = more trypsin-susceptible (destabilized)
# Conditions: ligand concentration: 5 uM; sample: K562 cleared lysate
row,Target,log2 fold change
1,"DDX47 (peptide sequence: KTFLFSATMTK, peptide start residue: 200) (UniProt Q9H0S4)",-0.426
2,"PANK2 (peptide sequence: ASSASVPAVGASAEGTRR, peptide start residue: 167) (UniProt Q9BZ23)",0.223
3,"UniProt Q9BZC1 (peptide sequence: LKVQLKR, peptide start residue: 472)",-0.313
4,"NSD3 (peptide sequence: QYEELLAEATK, peptide start residue: 335) (UniProt Q9BZ95)",0.454
5,"CHAC1 (peptide sequence: GFSGHNLEYLLR, peptide start residue: 170) (UniProt Q9BUX1)",-0.189
6,"EGLN1 (peptide sequence: DRQYCELCGKMENLLR, peptide start residue: 17) (UniProt Q9GZT9)",-0.793
7,"UniProt Q9BWU1 (peptide sequence: DLKPANILVMGEGPER, peptide start residue: 151)",-0.382
8,"DDA1 (peptide sequence: KRDQEQVELEGESSAPPR, peptide start residue: 71) (UniProt Q9BW61)",0.176
9,"UniProt Q9H0M5 (peptide sequence: THMGEKPYECKDCGK, peptide start residue: 725)",0.29
10,"CEP295 (peptide sequence: SDSTIPLSHPK, peptide start residue: 1225) (UniProt Q9C0D2)",-1.04
11,"UniProt Q9BVS4 (peptide sequence: EMQADDELLHPLGPDDK, peptide start residue: 308)",0.305
